Test results reported in article PMC7819943, “Rice protein-binding microarrays: a tool to detect cis-acting elements near promoter regions in rice”.
The list shows a part of the results.

By UniProt entry, the sequences of proteins in these tests, tags left out.
UniProt Q0JBA9, entry or part of it: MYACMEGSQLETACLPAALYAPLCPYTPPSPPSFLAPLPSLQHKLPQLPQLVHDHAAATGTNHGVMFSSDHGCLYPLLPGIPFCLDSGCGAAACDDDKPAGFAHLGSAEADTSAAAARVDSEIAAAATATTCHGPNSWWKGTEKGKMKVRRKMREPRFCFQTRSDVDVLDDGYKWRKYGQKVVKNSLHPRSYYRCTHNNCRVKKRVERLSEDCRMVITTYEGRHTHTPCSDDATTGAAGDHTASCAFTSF

molecular target: OsWRKY34 (Oryza sativa, UniProt Q0JBA9 1-250); assay: protein-binding microarray (RPBM); PBS, 2% BSA, 51.3 ng/ul salmon testes DNA, 50 uM zinc acetate, 200 nM TF, 25 C, 1 h; high values mean tight binding; settings: protein: recombinant; tags: N-terminal polyhistidine and DsRed monomer fusion (pET32a); label: CyDye5-dUTP incorporated in the synthesized complementary strand; 3' TTTTT single-stranded linker to array surface; dsDNA, one strand shown
Procedure, shortened: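 Ni–NTA purification followed expression in E. coli BL21-CodonPlus of transcription factors fused N-terminally to a polyhistidine tag and DsRed. At 200 nM in PBS with 2% BSA, salmon testes DNA and 50 µM zinc acetate, the protein was incubated for 1 h at 25 °C with a custom Agilent array that had been primer-extended with Cy5-dUTP and blocked with 2% BSA. After washing, the array was read on an Axon 4000B scanner. The binding signal is per-feature fluorescence intensity in arbitrary units.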

In order of rising binding signal:
1. TAACAACTTATCCAACTAGTATTACATTGTCTCAACAATTCGGAGTCACCTAGTGCAG  8030 fluorescence intensity (a.u.)
2. TCCTTCCTCCGATTCACACACACTCCTCGCCGTCTTGTTTCGGAGTCACCTAGTGCAG  8030 fluorescence intensity (a.u.)
3. CAGTATCTGGTTGGTTTCCTTTAATCTTCTCTAAATAAACCGGAGTCACCTAGTGCAG  8040 fluorescence intensity (a.u.)
4. TGCTGTGTATAGACGTGTCCCTTTTGTTGGTACACGCCCACGGAGTCACCTAGTGCAG  8040 fluorescence intensity (a.u.)
5. TGTGTGTATGCGTTTATAGGAGTAACTGTGTGTGCGTTTACGGAGTCACCTAGTGCAG  8150 fluorescence intensity (a.u.)
6. TTAACCACAGTGCCGTTCTCTAGCCACCATCTCAGCAGCACGGAGTCACCTAGTGCAG  8220 fluorescence intensity (a.u.)
7. AACTCGCTCGCTCTCTCGCTCGCTTGCTTGCACTCTCGCCCGGAGTCACCTAGTGCAG  8260 fluorescence intensity (a.u.)
8. CAGCGACGACGACCACGACGAGATGGGGATTTGGGGCAGGCGGAGTCACCTAGTGCAG  8260 fluorescence intensity (a.u.)
9. CTTGCGCTGTCACCTACCGCCTCGGCTCCGAGAGAGAGGACGGAGTCACCTAGTGCAG  8330 fluorescence intensity (a.u.)
10. GGCGTTAACTTGCTGATGTGTGTTCTTTTTCATTGATTCCCGGAGTCACCTAGTGCAG  8330 fluorescence intensity (a.u.)
11. TATGTCACGTATAAAATTCTAATGCTAGCTAACTACCATACGGAGTCACCTAGTGCAG  8340 fluorescence intensity (a.u.)
12. GTCTCGTCTCCTTCCTCGGCTCGGCATTTTCGCGAAATCCCGGAGTCACCTAGTGCAG  8350 fluorescence intensity (a.u.)
13. TCTTTGTGCATATCGAATTTGACATTACTATAAATTTACTCGGAGTCACCTAGTGCAG  8350 fluorescence intensity (a.u.)
14. CACTCCACTATATATACCCTCGCTCGCGCGCGCGCACTCCCGGAGTCACCTAGTGCAG  8380 fluorescence intensity (a.u.)
15. TACATCGTCCACTTCGACTACTTCCTCTACATCGGCATGTCGGAGTCACCTAGTGCAG  8420 fluorescence intensity (a.u.)
16. ACGCCAGCAAGCCACTAGGGCGCATCCTCTTTTGCTATCACGGAGTCACCTAGTGCAG  8420 fluorescence intensity (a.u.)
17. TCTGCCTTAAAATCTCAATAATCTCTCTCTGTGTGTGTCTCGGAGTCACCTAGTGCAG  8440 fluorescence intensity (a.u.)
18. AGATTTCCCCTTGGTTCGTTGTTCTGTTCTATCCCCTTCTCGGAGTCACCTAGTGCAG  8460 fluorescence intensity (a.u.)
19. AAAAAAGAATTTGGTGGGTGAGAGTTGACTGTGAGCTTCTCGGAGTCACCTAGTGCAG  8460 fluorescence intensity (a.u.)
20. TACACTTCCCGTTTCCCTGGGAGGCGGAGGAGGAGGGGAGCGGAGTCACCTAGTGCAG  8510 fluorescence intensity (a.u.)
21. TAGATGTTGGCGTGTTTTTGTCTCGATGTATTATCGTACACGGAGTCACCTAGTGCAG  8520 fluorescence intensity (a.u.)
22. GCCTATTCGCGCCACCCACATCACGCCCCTACTCGAACATCGGAGTCACCTAGTGCAG  8530 fluorescence intensity (a.u.)
23. TCTCTGCTCTTAGTTTACTTCTGTCAGGTTGGAATATAATCGGAGTCACCTAGTGCAG  8540 fluorescence intensity (a.u.)
24. CCTCCTCTCGTCGCTTCCGCCTTGGCTCGTCTTGTGCCTACGGAGTCACCTAGTGCAG  8570 fluorescence intensity (a.u.)
25. CCCGAGCTTGGATTGATTTTTCTTTTTTCATTTTCCAACGCGGAGTCACCTAGTGCAG  8610 fluorescence intensity (a.u.)
26. CGGCCGCACCTCCCCTCGCCGCCTCGCGCGTCGCAACTTCCGGAGTCACCTAGTGCAG  8620 fluorescence intensity (a.u.)
27. TTCTGGTTTTTGAGTGAATTTAAGTTTGCATTTATTTTTTCGGAGTCACCTAGTGCAG  8630 fluorescence intensity (a.u.)
28. TCCTCCTACCCAAACACCATCTATCCATTATGCACCCATCCGGAGTCACCTAGTGCAG  8650 fluorescence intensity (a.u.)
29. ACTGCTTATGCCATGATCATTGTTTCATTTTCTTAGATTACGGAGTCACCTAGTGCAG  8660 fluorescence intensity (a.u.)
30. CATGGCTTATTTGGTTGCACATCCATTTTTCCTACCATCACGGAGTCACCTAGTGCAG  8740 fluorescence intensity (a.u.)
31. CATATATTTTTTTTACACTACATATTTTCTTCGCGCAATTCGGAGTCACCTAGTGCAG  8870 fluorescence intensity (a.u.)
32. GTATTGCGCACACACGATAGATCACTTTTTCCAGCACACCCGGAGTCACCTAGTGCAG  8910 fluorescence intensity (a.u.)
33. ATCATTAACCGCGTCTTATTATTGTATTTATTTAGTATTACGGAGTCACCTAGTGCAG  8920 fluorescence intensity (a.u.)
34. TCTCTTATCCCTCTTATTTTGTTAATAGATGCTGTCTTCACGGAGTCACCTAGTGCAG  8920 fluorescence intensity (a.u.)
35. GTGTTCATTGCTAGTTGCATTGTGGTTTTCTAGTTAATTACGGAGTCACCTAGTGCAG  9000 fluorescence intensity (a.u.)
36. CTACAATACGGTCAGCATATCTACCACCCGTCCGATATTCCGGAGTCACCTAGTGCAG  9030 fluorescence intensity (a.u.)
37. TGCTAGCTAACCAAGACTCCGACTCTTCTATTAGTACCTACGGAGTCACCTAGTGCAG  9060 fluorescence intensity (a.u.)
38. AAACCCTAGCTCGCAGTCGCACACCCTCCGGCTGCACAGCCGGAGTCACCTAGTGCAG  9100 fluorescence intensity (a.u.)
39. CTGTCTCTCCTACTGTTCAGCCGTAAGCATCGTGGCCATTCGGAGTCACCTAGTGCAG  9180 fluorescence intensity (a.u.)
40. TTTTTTTTTCTCAATCGCTTGTTGTCCGATTGAATTTTGTCGGAGTCACCTAGTGCAG  9180 fluorescence intensity (a.u.)
41. TTCATGTATTTGCACAATATATTTGGCCGTGTCCTATATTCGGAGTCACCTAGTGCAG  9200 fluorescence intensity (a.u.)
42. GCAGAAAAGCTTTCAACAACCACTTTGGCTTCTTATTCTACGGAGTCACCTAGTGCAG  9200 fluorescence intensity (a.u.)
43. CTATCACCTCCCGCTTCTCCCAGAGCTTTTCGTCCAGATTCGGAGTCACCTAGTGCAG  9200 fluorescence intensity (a.u.)
44. ACCTCCTTTTCATACAGCCGGCGTGGCATTTGTGGGCCCACGGAGTCACCTAGTGCAG  9220 fluorescence intensity (a.u.)
45. ACTACTGTATACGTGTATACTCTACTATCCATCATCGCCGCGGAGTCACCTAGTGCAG  9240 fluorescence intensity (a.u.)
46. GCGGTTCTGCAACTGTTTGCTATCATTTTTGTGCCGAGATCGGAGTCACCTAGTGCAG  9280 fluorescence intensity (a.u.)
47. CTCACAGTTCAGTTCTAACCCACCAATTGCCATGCCCTTTCGGAGTCACCTAGTGCAG  9340 fluorescence intensity (a.u.)
48. GCGATGTTCTGCCTCCTCGTGTACATGTGCTTCGGCGACCCGGAGTCACCTAGTGCAG  9400 fluorescence intensity (a.u.)
49. ACACAAGAGTAAGCACATTATTACATGCCCTTTAATTTCTCGGAGTCACCTAGTGCAG  9430 fluorescence intensity (a.u.)
50. TGTTTATTTGTTTTCTAAATTTTCCTTATATATTTTGTTGCGGAGTCACCTAGTGCAG  9540 fluorescence intensity (a.u.)
51. TTGGTACTATGGTTGCATTCGTTCCGAGCACTCATTTTATCGGAGTCACCTAGTGCAG  9580 fluorescence intensity (a.u.)
52. CCTTTTTGGCACCGCATTACTTTCCTATTTTAGTAAATTTCGGAGTCACCTAGTGCAG  9590 fluorescence intensity (a.u.)
53. CTTGTCTCTCTTTCTCTTTCTCTCTCTCTCACCTGTTATTCGGAGTCACCTAGTGCAG  9740 fluorescence intensity (a.u.)
54. GACCCCTGTTTTCGCTTTTCTTTGGGCCCTCCTCTCTCCTCGGAGTCACCTAGTGCAG  9770 fluorescence intensity (a.u.)
55. TTTGGATCTAACGCTCTTTTCATCTTTGACGTTGCCCACGCGGAGTCACCTAGTGCAG  9810 fluorescence intensity (a.u.)
56. AGGATTTTGAGTTTTTGTTTGCATTTTTTGACCACTCGTCCGGAGTCACCTAGTGCAG  9820 fluorescence intensity (a.u.)
57. CATCCAAATAGGTTCTTTTAGTTCAATTTTGGGGCAGTTTCGGAGTCACCTAGTGCAG  9920 fluorescence intensity (a.u.)
58. CACGCCGTTTTCTGCATGTCACGGCCATCTCGTGCGTGGCCGGAGTCACCTAGTGCAG  9950 fluorescence intensity (a.u.)
59. TTTCCGTGTCCAACGTTTGACTGTCCGTCTTATTAAAAAACGGAGTCACCTAGTGCAG  10000 fluorescence intensity (a.u.)
60. TACTTTTAGGCCTCTCTTCCTTCGTACTCTTGAATGGGCACGGAGTCACCTAGTGCAG  10100 fluorescence intensity (a.u.)
61. TGAATCAACTCACTCTGGTTTTTGGGTCCGGTTTTCCATACGGAGTCACCTAGTGCAG  10200 fluorescence intensity (a.u.)
62. TTTTTATATACCGGTAAATATCCGCTACCGTATTCGTTCCCGGAGTCACCTAGTGCAG  10200 fluorescence intensity (a.u.)
63. TCCATCAGTATCACGCGTTCGTCCTACGATTTCGTCATGACGGAGTCACCTAGTGCAG  10200 fluorescence intensity (a.u.)
64. GTTCTCTCTGCATCTCTTCTTCGTTCGATTTCTTGGTCCACGGAGTCACCTAGTGCAG  10300 fluorescence intensity (a.u.)
65. TCTCTCTCTGTGCATGGTGGGGAGGTGCGGCAGTGGTGGTCGGAGTCACCTAGTGCAG  10400 fluorescence intensity (a.u.)
66. AATTCCACATGTCAAATCCGATTATTATTTGCATTACCTTCGGAGTCACCTAGTGCAG  10600 fluorescence intensity (a.u.)
67. CAGGCGGAATCTGTAATTTGTTTGTGTTATTAGTCTATGTCGGAGTCACCTAGTGCAG  10800 fluorescence intensity (a.u.)
68. ACAAGGGGTCGGTCTATCATGCTGATGCGGTCGACCGCTCCGGAGTCACCTAGTGCAG  10900 fluorescence intensity (a.u.)
69. AGCTCGCACCACACTATCTTTCTTACCCACCCCGACAATTCGGAGTCACCTAGTGCAG  11000 fluorescence intensity (a.u.)
70. AATGTGTCCCGTATCCCGTAGCTAATTAATATGTTTTCACCGGAGTCACCTAGTGCAG  11100 fluorescence intensity (a.u.)
71. CTCCTCCTGCCACGCGTACCTCCTCTTCACTCTCCAGCAGCGGAGTCACCTAGTGCAG  11100 fluorescence intensity (a.u.)
72. CTCTCCGGTCCGTCCCTTCGTTGACTGCCGCTCGGTTTGCCGGAGTCACCTAGTGCAG  11400 fluorescence intensity (a.u.)
73. ACACCCATGGAACTTGTCGCCTCGAGGAGGGGAGGGGAGCCGGAGTCACCTAGTGCAG  11800 fluorescence intensity (a.u.)
74. CAACCCATCTCCGCCGCCACCCCACCGTTTCTCTCCCTTGCGGAGTCACCTAGTGCAG  12000 fluorescence intensity (a.u.)
75. GCCCAACTCGCGCCTCCTTCTCCGGTCGTCCTCCCTCCGCCGGAGTCACCTAGTGCAG  13100 fluorescence intensity (a.u.)
76. TTGGGAGGGATGGGGCGGTGGTTAGGGGATGAGCGGAGGACGGAGTCACCTAGTGCAG  13200 fluorescence intensity (a.u.)
77. ACCCGCCATCAATTCACTCTCTCACTCGTCACTCTCCTATCGGAGTCACCTAGTGCAG  13200 fluorescence intensity (a.u.)
78. GCCACCTTTTGTTCCGCAACCGCAATGATTTCTTCTTCTTCGGAGTCACCTAGTGCAG  14800 fluorescence intensity (a.u.)
79. GTTAAATTCGAGGGGTTTCTTGTAATTTCGGGGTGGATAACGGAGTCACCTAGTGCAG  16500 fluorescence intensity (a.u.)
80. ACTGCTAATTCGTCTATTTTGTACCACTTTCTCTATTTTTCGGAGTCACCTAGTGCAG  16500 fluorescence intensity (a.u.)
81. CCGCTCGTCTTCCACTGCAGCCCAGCTCCCGTTCTTTCAACGGAGTCACCTAGTGCAG  16500 fluorescence intensity (a.u.)
82. CTCGAGCGGCGGTGGGGATGGGGATGGGGCGGCGGCGACGCGGAGTCACCTAGTGCAG  17000 fluorescence intensity (a.u.)
83. TTCACTTTCACCTCGCCGTCTTGGTTGTCTTGCCGTCTTTCGGAGTCACCTAGTGCAG  20200 fluorescence intensity (a.u.)
84. TTATCACAGATTCACAGTCCTTTGCCTTCATAAACACCTCCGGAGTCACCTAGTGCAG  65500 fluorescence intensity (a.u.)
